No constants are given. Whether binding was seen depends on the method and setting. Some entries that bind do so weakly or less than the wild type.

Protein sequences, listed by entry. Tags and fused reporters are not part of them. Residues count along the entry.
UniProt P02768, residues 25-609: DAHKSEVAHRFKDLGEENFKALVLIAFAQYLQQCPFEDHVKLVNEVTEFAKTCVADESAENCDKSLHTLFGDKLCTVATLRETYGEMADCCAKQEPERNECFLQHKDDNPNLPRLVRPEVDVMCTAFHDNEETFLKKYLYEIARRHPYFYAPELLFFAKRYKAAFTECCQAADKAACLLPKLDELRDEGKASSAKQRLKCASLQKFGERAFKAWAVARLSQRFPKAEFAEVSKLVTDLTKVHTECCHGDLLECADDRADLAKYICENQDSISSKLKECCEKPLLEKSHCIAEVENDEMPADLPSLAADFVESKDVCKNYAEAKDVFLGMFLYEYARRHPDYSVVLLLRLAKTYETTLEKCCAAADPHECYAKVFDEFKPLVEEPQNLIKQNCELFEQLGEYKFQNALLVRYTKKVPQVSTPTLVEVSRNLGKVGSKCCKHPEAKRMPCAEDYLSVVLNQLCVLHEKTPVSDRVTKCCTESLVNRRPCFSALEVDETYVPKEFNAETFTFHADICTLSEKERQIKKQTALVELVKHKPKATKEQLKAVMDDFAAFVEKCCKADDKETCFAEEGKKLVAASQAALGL

Test [1] addresses human serum albumin (human) (UniProt P02768). Briefly: phage display panning on HSA and screening.
The target is the same in test [2]. The test is described as follows: phage and periprep ELISA on HSA; purified 6xHis-tagged VNAR.

B1: SEQ ID NO 37 (VNAR)
VNAR: TRVDQTPRTATKETGESLTINCVLTDTSYPLYSTYWYRKNPGSSNKERISISGRYVESVNKGTKSFSLRIKDLTVADSATYICRAMGTBSWTGDGAGTVLTVN
Take B1: in test [1], the binding entry is “binds”.

B2: BH4 (VNAR)
chain: TRVDQSPSSLSASVGDRVTITCVLTDTSYPLYSTYWYRKNPGSSNKEQISISGRYSESVNKGTKSFTLTISSLQPEDFATYYCRAMGTNLWTGDGA
As to B2, in test [2], the binding entry is on record as “binds”.

(Values after patent publication US11692025.)
